Assay [1] deals with nuclear factor-κB (NF-κB) p65 (mouse (endogenous in BMDMs)) (UniProt Q04207). Kind of assay: co-IP; lysates of BMDMs from WT and Pad2-/- mice stimulated with PA-derived LPS (250 ng/mL, 1 h); immunoprecipitation with anti-p65 antibody or control IgG; blot with anti-PAD2.
In assay [2] the target is importin α3 (mouse (endogenous in RAW 264.7)) (UniProt O35343). Kind of assay: co-IP; lysates of R171A mutant and WT RAW 264.7 cells stimulated with PA-derived LPS (250 ng/mL, 1 h); immunoprecipitation with anti-importin α3 or control IgG; blot with anti-NF-κB p65.

The chains behind the UniProt entries cited, without tags or fusion partners.
UniProt Q04207: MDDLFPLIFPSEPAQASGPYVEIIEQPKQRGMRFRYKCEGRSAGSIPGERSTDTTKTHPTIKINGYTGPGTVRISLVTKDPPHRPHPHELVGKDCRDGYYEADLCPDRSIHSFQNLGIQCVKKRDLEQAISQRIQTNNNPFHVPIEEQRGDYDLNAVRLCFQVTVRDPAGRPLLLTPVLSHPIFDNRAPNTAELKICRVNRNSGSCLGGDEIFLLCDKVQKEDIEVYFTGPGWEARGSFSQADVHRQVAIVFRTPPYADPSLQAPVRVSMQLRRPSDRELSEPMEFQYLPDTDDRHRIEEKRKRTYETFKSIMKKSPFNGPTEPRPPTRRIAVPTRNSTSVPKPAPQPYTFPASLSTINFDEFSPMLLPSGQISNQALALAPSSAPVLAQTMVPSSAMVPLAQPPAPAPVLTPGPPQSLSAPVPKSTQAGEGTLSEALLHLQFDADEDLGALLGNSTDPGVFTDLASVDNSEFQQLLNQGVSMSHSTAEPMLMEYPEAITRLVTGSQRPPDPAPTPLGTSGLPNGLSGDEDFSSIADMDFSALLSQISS
UniProt O35343: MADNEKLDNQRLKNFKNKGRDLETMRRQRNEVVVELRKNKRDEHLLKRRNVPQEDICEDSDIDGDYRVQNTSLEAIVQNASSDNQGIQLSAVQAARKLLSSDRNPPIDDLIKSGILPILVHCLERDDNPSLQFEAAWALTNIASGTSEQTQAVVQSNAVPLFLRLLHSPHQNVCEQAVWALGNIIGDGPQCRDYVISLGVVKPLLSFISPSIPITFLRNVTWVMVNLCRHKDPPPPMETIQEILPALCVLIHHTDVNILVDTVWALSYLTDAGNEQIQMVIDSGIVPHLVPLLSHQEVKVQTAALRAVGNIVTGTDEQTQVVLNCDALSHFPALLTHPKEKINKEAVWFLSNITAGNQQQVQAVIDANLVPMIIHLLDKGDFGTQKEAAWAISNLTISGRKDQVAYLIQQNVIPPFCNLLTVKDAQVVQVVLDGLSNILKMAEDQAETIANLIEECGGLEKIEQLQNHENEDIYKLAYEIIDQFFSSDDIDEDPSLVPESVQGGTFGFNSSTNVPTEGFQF
UniProt Q08642: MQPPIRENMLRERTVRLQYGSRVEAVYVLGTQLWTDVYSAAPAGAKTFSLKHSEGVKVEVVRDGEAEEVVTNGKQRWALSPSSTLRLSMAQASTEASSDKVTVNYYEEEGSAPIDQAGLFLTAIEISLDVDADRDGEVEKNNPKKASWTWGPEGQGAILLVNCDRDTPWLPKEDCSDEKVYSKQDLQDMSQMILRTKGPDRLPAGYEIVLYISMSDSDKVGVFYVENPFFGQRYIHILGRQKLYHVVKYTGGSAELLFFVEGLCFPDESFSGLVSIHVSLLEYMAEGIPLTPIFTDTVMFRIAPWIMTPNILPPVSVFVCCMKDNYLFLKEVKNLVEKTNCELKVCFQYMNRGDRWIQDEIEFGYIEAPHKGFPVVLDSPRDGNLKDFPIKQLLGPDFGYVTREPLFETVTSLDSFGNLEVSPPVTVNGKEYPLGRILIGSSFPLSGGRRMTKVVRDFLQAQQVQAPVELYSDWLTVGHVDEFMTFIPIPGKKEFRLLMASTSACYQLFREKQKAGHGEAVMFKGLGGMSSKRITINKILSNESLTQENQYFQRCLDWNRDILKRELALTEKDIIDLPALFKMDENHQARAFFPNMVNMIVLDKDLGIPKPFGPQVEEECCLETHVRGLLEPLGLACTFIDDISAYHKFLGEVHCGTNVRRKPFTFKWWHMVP

Results are given in words; binding and its absence hold for the method and conditions named. In cells and extracts the contact can be indirect. Some entries that bind do so weakly or less than the wild type.

For the substance “peptidyl arginine deiminase 2 (PAD2) (from UniProt Q08642 1-673) (enzyme)”, the binding entry in assay [1] is given as “binds”.

Take “nuclear factor-κB (NF-κB) p65 in WT RAW 264.7 cells (from UniProt Q04207 1-549)”: the binding entry in assay [2] is “binds”.

The record behind these values is paper PMC12079445.
